Results reported in PMC4683056.
These are yes or no findings as the source states them, for the method shown. Binding seen in cells or lysates may run through a third protein. These calls come from enrichment with a bait or labelling near it, and not all partners need be listed.

Sequences of proteins named here, by UniProt entry; tags and fusion partners are left off.
UniProt Q8IZD2: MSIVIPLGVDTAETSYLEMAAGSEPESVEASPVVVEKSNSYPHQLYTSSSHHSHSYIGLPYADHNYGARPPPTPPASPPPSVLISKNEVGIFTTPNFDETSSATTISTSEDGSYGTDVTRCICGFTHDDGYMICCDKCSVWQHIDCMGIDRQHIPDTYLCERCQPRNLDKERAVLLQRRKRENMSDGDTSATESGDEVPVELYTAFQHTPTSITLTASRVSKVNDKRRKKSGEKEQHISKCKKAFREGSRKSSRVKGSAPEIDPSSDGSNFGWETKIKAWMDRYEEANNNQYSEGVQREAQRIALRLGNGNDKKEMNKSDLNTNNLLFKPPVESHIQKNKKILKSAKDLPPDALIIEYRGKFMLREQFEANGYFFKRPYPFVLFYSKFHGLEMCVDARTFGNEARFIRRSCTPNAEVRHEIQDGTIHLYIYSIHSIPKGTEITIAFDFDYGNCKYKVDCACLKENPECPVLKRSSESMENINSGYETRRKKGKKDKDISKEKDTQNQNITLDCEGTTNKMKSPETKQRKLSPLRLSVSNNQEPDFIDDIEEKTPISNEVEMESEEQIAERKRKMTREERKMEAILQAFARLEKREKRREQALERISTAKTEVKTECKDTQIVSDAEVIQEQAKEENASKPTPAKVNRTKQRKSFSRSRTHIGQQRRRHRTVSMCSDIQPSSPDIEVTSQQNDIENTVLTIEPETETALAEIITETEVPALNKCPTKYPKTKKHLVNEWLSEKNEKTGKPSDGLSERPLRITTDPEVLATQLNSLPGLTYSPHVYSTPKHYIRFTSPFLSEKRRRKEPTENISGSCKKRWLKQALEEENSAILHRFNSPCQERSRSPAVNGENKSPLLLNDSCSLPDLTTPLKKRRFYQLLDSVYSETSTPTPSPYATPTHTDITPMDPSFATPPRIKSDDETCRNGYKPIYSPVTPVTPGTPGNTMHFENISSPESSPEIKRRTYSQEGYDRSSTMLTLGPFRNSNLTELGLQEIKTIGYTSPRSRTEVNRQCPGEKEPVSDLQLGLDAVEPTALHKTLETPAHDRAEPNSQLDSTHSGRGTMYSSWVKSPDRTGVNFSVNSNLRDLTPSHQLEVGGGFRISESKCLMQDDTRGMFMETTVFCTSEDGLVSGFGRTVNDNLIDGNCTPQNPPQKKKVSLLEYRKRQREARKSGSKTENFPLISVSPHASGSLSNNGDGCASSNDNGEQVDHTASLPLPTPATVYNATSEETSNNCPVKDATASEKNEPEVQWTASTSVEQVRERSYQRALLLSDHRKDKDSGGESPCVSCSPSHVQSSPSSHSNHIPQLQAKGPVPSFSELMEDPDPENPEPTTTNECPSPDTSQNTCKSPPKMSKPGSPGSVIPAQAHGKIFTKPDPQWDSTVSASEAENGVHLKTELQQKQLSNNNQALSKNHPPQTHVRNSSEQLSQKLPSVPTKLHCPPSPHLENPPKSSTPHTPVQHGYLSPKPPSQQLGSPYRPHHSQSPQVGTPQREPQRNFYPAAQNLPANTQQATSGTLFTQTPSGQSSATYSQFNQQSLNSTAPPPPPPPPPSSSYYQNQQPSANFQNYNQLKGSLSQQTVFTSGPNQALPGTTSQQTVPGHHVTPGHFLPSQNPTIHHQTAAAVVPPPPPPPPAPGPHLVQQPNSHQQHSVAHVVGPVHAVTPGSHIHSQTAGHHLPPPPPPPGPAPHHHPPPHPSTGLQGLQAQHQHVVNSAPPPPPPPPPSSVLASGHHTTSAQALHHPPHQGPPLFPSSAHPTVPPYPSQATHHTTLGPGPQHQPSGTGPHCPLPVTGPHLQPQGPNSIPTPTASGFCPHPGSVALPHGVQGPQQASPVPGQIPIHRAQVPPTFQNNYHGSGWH
UniProt Q93009: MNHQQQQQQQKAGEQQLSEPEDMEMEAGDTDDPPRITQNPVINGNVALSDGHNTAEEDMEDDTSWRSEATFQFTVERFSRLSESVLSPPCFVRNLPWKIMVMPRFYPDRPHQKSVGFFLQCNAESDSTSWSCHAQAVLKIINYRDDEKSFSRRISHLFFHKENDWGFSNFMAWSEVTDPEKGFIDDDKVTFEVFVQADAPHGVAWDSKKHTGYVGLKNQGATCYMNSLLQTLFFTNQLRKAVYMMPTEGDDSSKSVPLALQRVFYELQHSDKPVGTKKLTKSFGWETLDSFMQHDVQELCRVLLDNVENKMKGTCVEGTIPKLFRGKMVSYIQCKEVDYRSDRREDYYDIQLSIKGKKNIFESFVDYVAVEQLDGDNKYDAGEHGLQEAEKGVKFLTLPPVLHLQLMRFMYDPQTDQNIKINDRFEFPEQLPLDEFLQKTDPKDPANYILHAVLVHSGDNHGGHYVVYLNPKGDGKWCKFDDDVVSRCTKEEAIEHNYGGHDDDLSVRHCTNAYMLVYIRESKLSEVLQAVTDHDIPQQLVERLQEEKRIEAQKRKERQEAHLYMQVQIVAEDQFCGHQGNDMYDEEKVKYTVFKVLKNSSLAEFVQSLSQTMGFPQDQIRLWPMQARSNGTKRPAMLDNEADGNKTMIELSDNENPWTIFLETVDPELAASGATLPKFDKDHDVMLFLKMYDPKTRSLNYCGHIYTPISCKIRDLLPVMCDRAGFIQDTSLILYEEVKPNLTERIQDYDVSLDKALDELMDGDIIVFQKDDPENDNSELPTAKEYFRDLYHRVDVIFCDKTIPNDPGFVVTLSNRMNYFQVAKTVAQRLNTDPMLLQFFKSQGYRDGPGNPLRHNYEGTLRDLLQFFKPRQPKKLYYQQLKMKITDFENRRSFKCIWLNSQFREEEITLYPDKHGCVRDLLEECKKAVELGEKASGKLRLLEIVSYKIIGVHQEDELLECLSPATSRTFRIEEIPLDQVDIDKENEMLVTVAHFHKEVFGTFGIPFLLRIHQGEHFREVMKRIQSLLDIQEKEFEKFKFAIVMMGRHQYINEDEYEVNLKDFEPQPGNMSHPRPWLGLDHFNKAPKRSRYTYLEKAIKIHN

Target: 3×FLAG-tagged MLL5 (UniProt Q8IZD2)
Assay: affinity purification with mass spectrometry; HEK293T transfected with pCDEF3-MLL5-3×FLAG or pCDEF3; M2 FLAG affinity gel 4°C 12 h, elution with 3×FLAG peptide, HPLC-MS/MS

“USP7 (found by mass spectrometry with 3×FLAG-MLL5) (from UniProt Q93009 1-1102) (enzyme)” was tested, and the binding was “binds”.
